The chains behind the UniProt entries cited, without tags or fusion partners.
UniProt P16390, whole entry: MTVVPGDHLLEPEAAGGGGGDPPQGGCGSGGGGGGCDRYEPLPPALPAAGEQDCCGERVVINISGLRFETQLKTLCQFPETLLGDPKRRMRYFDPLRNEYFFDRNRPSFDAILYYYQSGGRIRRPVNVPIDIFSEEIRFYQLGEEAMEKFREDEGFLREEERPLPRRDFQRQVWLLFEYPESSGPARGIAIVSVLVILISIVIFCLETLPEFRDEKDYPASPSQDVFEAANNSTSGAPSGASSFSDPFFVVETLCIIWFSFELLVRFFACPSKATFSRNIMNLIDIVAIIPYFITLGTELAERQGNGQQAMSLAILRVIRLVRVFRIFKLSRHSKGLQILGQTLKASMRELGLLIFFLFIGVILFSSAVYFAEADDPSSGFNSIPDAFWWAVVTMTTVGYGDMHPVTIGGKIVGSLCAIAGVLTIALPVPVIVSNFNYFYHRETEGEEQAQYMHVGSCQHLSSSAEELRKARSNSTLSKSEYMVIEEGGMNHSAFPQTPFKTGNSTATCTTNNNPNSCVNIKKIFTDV

According to patent US8063093B2, “Potassium channel blockers and uses thereof” (priority 2005, dated 2011):

Target: Kv1.3 (L929 cells stably expressing mKv1.3 or activated human T cells) (Mus musculus, UniProt P16390)
Test: Kv1.3 current blockade, whole-cell patch-clamp
Settings: read-out: EC50 (nM) blockade; Table 8, compounds of formula I; bounds given in uM

COc1c(C(C)=O)c(O)c(OCCOc2ccccn2)c2occc12
EC50: > 10000 nM

Structures were worked out from names or drawings and are uncertain.
